This experiment relates to K11 HPV E7 transformed human keratinocyte line. The experiment can be described thus: Secondary assay: cell proliferation WST-1, K11. Type of experiment: cell-based. The note with it: Table 2, 48 h, read-out: Cell Proliferation Inhibition WST-1 (IC50 unless otherwise specified) K11. A general note: Tetrazolium assays rely on reduction of a dye to a coloured formazan, in cell work by metabolically active cells.

Turning to `O=C(CCCCCCC(=O)Nc1ccccc1)NO` [SAHA, suberoylanilide hydroxamic acid, reference compound], the IC50 was determined as 6.82 µM.
